Values of other authors as cited in patent US20180125916A1, “System and Method for Natural Hair Loss Prevention Oil” (priority 2016, published 2018).
At least one structure is not confirmed: it was looked up by name or label, or the drawing left a doubt.

Test system: male pattern baldness
Conditions: hair loss treatment

SMILES: Nc1cc(N2CCCCC2)nc(N)[n+]1[O-] [Minoxidil]
- time to begin working: 6 months
